# Measured values taken from patent US20040072183A1, “Adhesive protein and uses thereof” (priority 2000, published 2004).
# System: human skin
# Test: Ability to attach 1 cm^2 samples of KIM wipe paper or latex to human skin (forearm)
# Design: key to Attachment of LATEX to human skin / Attachment of KIM Wipe to human skin: none (−); very weak (+/−); weak (+); strong (++); very strong (+++)
# [1] = Experiment II, samples observed for 20 minutes
compound,measurement,setting,value
O [Water],Time to detachment of LATEX sample from human skin,"Experiment I, sample detached on its own",10 min
same,Attachment of KIM Wipe to human skin,"Experiment I, samples observed for 60 minutes, removed with forceps",+
same,Attachment of KIM Wipe to human skin,[1],+
same,Attachment of LATEX to human skin,[1],+/−
same,Time to detachment of KIM Wipe sample from human skin,"Experiment III, sample detached on its own",4 min
same,Attachment of LATEX to human skin,"Experiment III, samples observed for 20 minutes",+/−
